From PubChem BioAssay AID330 (DTP/NCI, 2004) come the findings set out here.

This assay concerns P388 leukemia ip, CD2F1 mice, survival T/C. In words: NCI In Vivo Anticancer Drug Screen. Data for tumor model P388 Leukemia (intraperitoneal) in CD2F1 (CDF1) mice. The following applies: T/C endpoint: median survival time, higher T/C = longer survival.
Where [1] appears, read: dose: 200.0 mg/kg/injection, schedule: Q01DX009 (ip), vehicle: saline.
Setting [2] is: dose: 200.0 mg/kg/injection, schedule: Q01DX005 (ip), vehicle: saline with Tween-80.
Where [3] appears, read: dose: 200.0 mg/kg/injection, schedule: Q01DX009 (ip), vehicle: saline with Tween-80.
[4] abbreviates: dose: 200.0 mg/kg/injection, schedule: Q01DX005 (ip), vehicle: Klucel (hydroxypropylcellulose) (HPC).

The structures appear in SMILES notation. The list shows only some results of the screen, not a fair sample: it gathers tests that were run many times, whatever their T/C, doses with no T/C, and many T/C values between a quarter and a half above the control. Further doses and runs are listed elsewhere. T/C gives the treated animals as a percentage of the vehicle group. Some entries give survivors of the animals treated and no T/C: the source holds a T/C of zero for them, seemingly a mark for toxic or unscored doses. Some survivor counts are full or nearly so, which does not show that the dose was tolerated: survival well below the control is almost never listed, so the zero probably covers shortened survival too. Survivors were counted at the toxicity check, usually on the fifth day, unless a day is given; later deaths do not show. Schedule codes are those of the source, taken here to give the interval after Q, in days (D) or hours (H), and the number of doses after X. Some entries were tested several times; their values stand side by side, smallest first. Where survival is the endpoint, the PubChem record calls one and a half times the control and up active, and a quarter to a half above the control has no call in these data; cut-offs in other NCI protocols can differ. Some T/C values are followed by the survivors on the day toxicity was checked, most often the fifth; where none is given, no animal had died by that day.

Take `CS(C)=NC(=Nc1ccc(Cl)cc1)c1ccccc1`: for the setting “dose: 100.0 mg/kg/injection, schedule: Q01DX009 (ip), vehicle: saline with Tween-80”, the survivor count is listed as 2 of 6.

Take `CN(C)CCSC(=O)N1c2ccccc2C(C)(C)c2ccccc21`: the survivor count under setting [1] is 5 of 6.

Regarding `CCN(CCCNc1cc(OC)cc2cccnc12)C(C)C`, the survivor count reads like this: (dose: 50.0 mg/kg/injection, schedule: Q01DX005 (ip), vehicle: saline) 0 of 5; (dose: 100.0 mg/kg/injection, schedule: Q01DX005 (ip), vehicle: saline) 0 of 5; (dose: 200.0 mg/kg/injection, schedule: Q01DX005 (ip), vehicle: saline) 0 of 5.

Take `C=CC(=O)NC(=O)Nc1ccccc1Cl`: the survivor count runs as follows: (dose: 50.0 mg/kg/injection, schedule: Q01DX009 (ip), vehicle: Klucel (hydroxypropylcellulose) (HPC)) 3 of 6; (dose: 100.0 mg/kg/injection, schedule: Q01DX009 (ip), vehicle: Klucel (hydroxypropylcellulose) (HPC)) 0 of 6; (dose: 200.0 mg/kg/injection, schedule: Q01DX009 (ip), vehicle: Klucel (hydroxypropylcellulose) (HPC)) 0 of 6.

Take `Cc1ccc(S(=O)(=O)/C=C/CCl)cc1`: the survivor count under setting [2] is given as 1 of 5.

For the compound `O=C(Cc1nc(-c2ccc(Cl)cc2)no1)c1ccccc1`, under setting [3], the survivor count is recorded as 6 of 6.

On to `Cc1ccc(OC/C=N\N=C(N)N)cc1C`, for which the survivor count (dose: 240.0 mg/kg/injection, schedule: Q01DX005 (ip), vehicle: saline with Tween-80) is reported as 3 of 6.

On to `CCN(CC)c1ccc(NC(=S)NN)cc1`, for which the survivor count (dose: 240.0 mg/kg/injection, schedule: Q01DX005 (ip), vehicle: Klucel (hydroxypropylcellulose) (HPC)) is given as 0 of 6.

As to `Cc1ccc(C(=O)NN2C(N)=NC(N)=NC2(C)C)cc1`, the survivor count (dose: 200.0 mg/kg/injection, schedule: Q04DX003 (ip), vehicle: saline) is recorded as 6 of 6.

As for `COc1cccc(CN2CCN(N)CC2)c1`, the survivor count under setting [4] is recorded as 2 of 4.

On to `Cc1ccc(NS(=O)(=O)c2ccc([N+](=O)[O-])cc2)cc1`, for which the survivor count under setting [3] is on record as 6 of 6.

As to `COc1cccc2c1C(=O)c1c(O)c3c(c(O)c1C2=O)C[C@@](O)(C(=O)COS(=O)(=O)c1ccc(C)cc1)C[C@@H]3OC1CC(N)C(O)C(C)O1` (stereo not given in full), the T/C is 137 % of control (dose: 0.2 mg/kg/injection, schedule: Q01DX009 (ip), vehicle: water); 137 and 142 % of control (dose: 0.39 mg/kg/injection, schedule: Q01DX009 (ip), vehicle: water); 141 % of control (dose: 0.78 mg/kg/injection, schedule: Q01DX009 (ip), vehicle: water); 146 % of control (dose: 1.56 mg/kg/injection, schedule: Q01DX009 (ip), vehicle: water); 139 % of control [5 of 6 alive] (dose: 3.13 mg/kg/injection, schedule: Q01DX009 (ip), vehicle: water); 130 % of control (dose: 6.25 mg/kg/injection, schedule: Q01DX009 (ip), vehicle: water). The survivor count is 6 of 6 (dose: 12.5 mg/kg/injection, schedule: Q01DX009 (ip), vehicle: water); 5 of 6 and 6 of 6 (dose: 25.0 mg/kg/injection, schedule: Q01DX009 (ip), vehicle: water).

On to `CC12CCCC(O1)C(C)(C)O2` (stereo not given), for which the survivor count under setting [1] was 3 of 6.

For the compound `Cc1ccc(NCC2(/N=C/c3ccccc3)OC(CO)C(O)C2O)cc1` (stereo not given), the T/C (dose: 177.0 mg/kg/injection, schedule: Q01DX009 (ip), vehicle: Klucel (hydroxypropylcellulose) (HPC)) is 149 % of control. Under “dose: 600.0 mg/kg/injection, schedule: Q01DX009 (ip), vehicle: Klucel (hydroxypropylcellulose) (HPC)”, the survivor count was 2 of 6 and 6 of 6.

For the compound `C=CC1=C(C)C2=NC1=CC1=NC(=CC3=C(C)C4=C(O)C(C(=O)O)C(=C5NC(=C2)C(C)C5CCC(=O)O)C4=N3)C(CC)=C1C` (stereo not given), where the note is “dose: 25.0 mg/kg/injection, schedule: Q01DX005 (ip), vehicle: suspension in saline”, the survivor count is 0 of 5.

Take `C=C1C(=O)O[C@H]2[C@H]1[C@H](OC(=O)/C(C)=C\C)CC(=C)[C@@H]1[C@H](O)[C@H]3O[C@@]3(C)[C@@]12O`: the T/C (dose: 50.0 mg/kg/injection, schedule: Q01DX009 (ip), vehicle: saline) was 127 % of control.

Regarding `CCN(CC)c1ccc(NC(c2ccccc2)C(O)c2ccccc2)cc1` (stereo not given), the survivor count under setting [4] is 0 of 5.

As to `O=[N+]([O-])c1c(Nc2ccccc2)n(-c2ccccc2)c2ccc(O)cc12`, the survivor count is 6 of 6 (dose: 25.0 mg/kg/injection, schedule: Q01DX005 (ip), vehicle: saline with Tween-80); 6 of 6 (dose: 50.0 mg/kg/injection, schedule: Q01DX005 (ip), vehicle: saline with Tween-80); 6 of 6 (dose: 100.0 mg/kg/injection, schedule: Q01DX005 (ip), vehicle: saline with Tween-80); 6 of 6 under setting [2].

Take `CN(CCc1ccccn1)c1ccc2c(c1)Cc1ccccc1-2`: under setting [4], the survivor count is on record as 0 of 5.

Consider `CN(C)C1C(O)C2Oc3c(cc(O)c4c3C(=O)c3cc5c(c(O)c3C4=O)C(N)CC(C)(O)C5)C(C)(O2)C1O` (stereo not given), for which the T/C by setting is: (dose: 10.0 mg/kg/injection, schedule: Q01DX009 (ip), vehicle: other) 134 % of control; (dose: 20.0 mg/kg/injection, schedule: Q01DX009 (ip), vehicle: other) 139 % of control; (dose: 40.0 mg/kg/injection, schedule: Q01DX009 (ip), vehicle: other) 148 % of control. Further, the survivor count (dose: 80.0 mg/kg/injection, schedule: Q01DX009 (ip), vehicle: other) is 0 of 6.

Turning to `O=C1C=C2OCOC2=CC1=O`, the survivor count reads like this: (dose: 35.0 mg/kg/injection, schedule: Q01DX005 (ip), vehicle: Klucel (hydroxypropylcellulose) (HPC)) 3 of 6; (dose: 70.0 mg/kg/injection, schedule: Q01DX005 (ip), vehicle: Klucel (hydroxypropylcellulose) (HPC)) 0 of 6.
